In assay [1] the target is T1, TIMELESS short and cold isoform TIM-SC, HA-tagged (pAcTimSC-HA) (D. melanogaster) (UniProt P49021).
T1 sequence: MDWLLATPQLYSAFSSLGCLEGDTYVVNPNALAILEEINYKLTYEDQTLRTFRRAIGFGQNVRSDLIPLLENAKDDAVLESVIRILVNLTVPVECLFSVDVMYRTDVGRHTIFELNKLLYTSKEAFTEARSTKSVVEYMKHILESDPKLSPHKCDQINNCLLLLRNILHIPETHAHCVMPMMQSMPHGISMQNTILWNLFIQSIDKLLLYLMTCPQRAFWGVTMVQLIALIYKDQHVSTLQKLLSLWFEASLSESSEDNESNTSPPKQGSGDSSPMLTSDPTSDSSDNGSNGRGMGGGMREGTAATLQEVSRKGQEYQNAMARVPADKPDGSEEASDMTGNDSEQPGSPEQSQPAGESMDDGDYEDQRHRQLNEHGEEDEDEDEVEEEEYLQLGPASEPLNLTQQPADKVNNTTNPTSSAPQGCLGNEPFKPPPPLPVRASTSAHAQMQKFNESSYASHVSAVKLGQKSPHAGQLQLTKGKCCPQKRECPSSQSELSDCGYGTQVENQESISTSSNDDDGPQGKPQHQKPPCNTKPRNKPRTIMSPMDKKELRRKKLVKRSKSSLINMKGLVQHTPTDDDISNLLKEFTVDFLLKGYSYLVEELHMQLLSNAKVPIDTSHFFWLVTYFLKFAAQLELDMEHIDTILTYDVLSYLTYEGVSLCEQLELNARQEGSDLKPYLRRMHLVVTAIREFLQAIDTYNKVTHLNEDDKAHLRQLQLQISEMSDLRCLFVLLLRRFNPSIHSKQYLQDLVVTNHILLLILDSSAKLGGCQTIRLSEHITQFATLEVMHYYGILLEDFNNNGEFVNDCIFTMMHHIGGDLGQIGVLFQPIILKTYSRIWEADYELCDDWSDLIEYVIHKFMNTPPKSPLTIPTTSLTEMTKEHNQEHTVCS
The experiment in a line: co-IP; S2 cells co-transfected with pAcPerV5 and pAcTimL-HA or pAcTimSC-HA; lysis buffer 1% NP40, 20 mM Tris pH 7.4, 150 mM NaCl, 10% glycerol; immunoprecipitation with anti-HA and Protein G magnetic beads, 4°C; western blot for PER, GFP and TIM; IgG and no-TIM controls.

Assay [2] addresses T2, TIMELESS canonical isoform TIM-L, HA-tagged (pAcTimL-HA) (D. melanogaster) (UniProt P49021).
T2 sequence: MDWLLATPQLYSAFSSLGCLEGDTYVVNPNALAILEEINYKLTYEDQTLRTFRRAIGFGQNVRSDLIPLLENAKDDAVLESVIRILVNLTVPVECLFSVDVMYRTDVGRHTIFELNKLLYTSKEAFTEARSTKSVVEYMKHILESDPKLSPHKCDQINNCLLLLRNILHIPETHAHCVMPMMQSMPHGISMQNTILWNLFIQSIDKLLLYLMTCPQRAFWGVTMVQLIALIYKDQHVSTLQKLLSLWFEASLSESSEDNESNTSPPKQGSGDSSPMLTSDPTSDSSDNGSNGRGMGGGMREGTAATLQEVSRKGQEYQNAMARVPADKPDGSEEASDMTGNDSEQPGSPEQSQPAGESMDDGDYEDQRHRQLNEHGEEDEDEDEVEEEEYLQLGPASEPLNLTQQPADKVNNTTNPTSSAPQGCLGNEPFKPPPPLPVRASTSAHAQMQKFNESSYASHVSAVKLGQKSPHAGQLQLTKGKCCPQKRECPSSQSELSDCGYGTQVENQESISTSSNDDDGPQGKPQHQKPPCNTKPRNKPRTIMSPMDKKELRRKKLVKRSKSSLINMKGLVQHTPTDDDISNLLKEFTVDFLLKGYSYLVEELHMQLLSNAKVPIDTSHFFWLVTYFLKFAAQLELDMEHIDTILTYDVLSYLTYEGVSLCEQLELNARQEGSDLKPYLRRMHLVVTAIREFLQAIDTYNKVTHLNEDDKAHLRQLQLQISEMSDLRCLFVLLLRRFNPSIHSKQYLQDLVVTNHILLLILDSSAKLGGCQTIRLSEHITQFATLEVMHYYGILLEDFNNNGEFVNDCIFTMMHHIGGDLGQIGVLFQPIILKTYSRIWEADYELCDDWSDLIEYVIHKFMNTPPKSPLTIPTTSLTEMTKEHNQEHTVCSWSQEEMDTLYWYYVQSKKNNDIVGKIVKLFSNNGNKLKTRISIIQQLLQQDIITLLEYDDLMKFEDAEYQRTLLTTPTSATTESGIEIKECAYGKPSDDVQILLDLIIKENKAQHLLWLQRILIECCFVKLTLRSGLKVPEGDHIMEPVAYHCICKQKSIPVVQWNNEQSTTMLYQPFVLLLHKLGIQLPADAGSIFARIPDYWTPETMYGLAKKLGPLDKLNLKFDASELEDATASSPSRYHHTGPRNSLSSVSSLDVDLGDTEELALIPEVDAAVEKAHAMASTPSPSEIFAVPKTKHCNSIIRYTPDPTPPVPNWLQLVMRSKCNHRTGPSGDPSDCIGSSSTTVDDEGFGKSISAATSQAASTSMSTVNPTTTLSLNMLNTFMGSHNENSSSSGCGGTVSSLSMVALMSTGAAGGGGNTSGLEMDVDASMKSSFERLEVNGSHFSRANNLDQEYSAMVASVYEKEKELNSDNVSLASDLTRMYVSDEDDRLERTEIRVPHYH
Described as above.

Assay [3] concerns the target PERIOD (PER), expressed from pAcPerV5 (D. melanogaster) (UniProt P07663). The experiment in a line: co-IP; S2 cells co-transfected with pAcPerV5 and pAcTimL-HA, pAcTimSC-HA or both; lysis buffer 1% NP40, 20 mM Tris pH 7.4, 150 mM NaCl, 10% glycerol; immunoprecipitation with anti-PER and Protein G magnetic beads, 4°C; western blot for PER, GFP and TIM; IgG and no-PER controls.

These are yes or no findings as the source states them, for the method shown. Binding seen in cells or lysates may run through a third protein. Some results given as binding are weak or reduced against the parent protein; the word gives no strength. Where a sequence is shown, tags or fusion partners need not be part of it.

The record followed here is PMC6890466.

In the case of “PERIOD (PER), expressed from pAcPerV5 (from UniProt P07663 1-1218)”, the binding entry in assay [1] and in assay [2] was “binds” throughout.

B1: TIMELESS short and cold isoform TIM-SC, HA-tagged (pAcTimSC-HA) (protein, UniProt P49021 1-892)
chain: MDWLLATPQLYSAFSSLGCLEGDTYVVNPNALAILEEINYKLTYEDQTLRTFRRAIGFGQNVRSDLIPLLENAKDDAVLESVIRILVNLTVPVECLFSVDVMYRTDVGRHTIFELNKLLYTSKEAFTEARSTKSVVEYMKHILESDPKLSPHKCDQINNCLLLLRNILHIPETHAHCVMPMMQSMPHGISMQNTILWNLFIQSIDKLLLYLMTCPQRAFWGVTMVQLIALIYKDQHVSTLQKLLSLWFEASLSESSEDNESNTSPPKQGSGDSSPMLTSDPTSDSSDNGSNGRGMGGGMREGTAATLQEVSRKGQEYQNAMARVPADKPDGSEEASDMTGNDSEQPGSPEQSQPAGESMDDGDYEDQRHRQLNEHGEEDEDEDEVEEEEYLQLGPASEPLNLTQQPADKVNNTTNPTSSAPQGCLGNEPFKPPPPLPVRASTSAHAQMQKFNESSYASHVSAVKLGQKSPHAGQLQLTKGKCCPQKRECPSSQSELSDCGYGTQVENQESISTSSNDDDGPQGKPQHQKPPCNTKPRNKPRTIMSPMDKKELRRKKLVKRSKSSLINMKGLVQHTPTDDDISNLLKEFTVDFLLKGYSYLVEELHMQLLSNAKVPIDTSHFFWLVTYFLKFAAQLELDMEHIDTILTYDVLSYLTYEGVSLCEQLELNARQEGSDLKPYLRRMHLVVTAIREFLQAIDTYNKVTHLNEDDKAHLRQLQLQISEMSDLRCLFVLLLRRFNPSIHSKQYLQDLVVTNHILLLILDSSAKLGGCQTIRLSEHITQFATLEVMHYYGILLEDFNNNGEFVNDCIFTMMHHIGGDLGQIGVLFQPIILKTYSRIWEADYELCDDWSDLIEYVIHKFMNTPPKSPLTIPTTSLTEMTKEHNQEHTVCS
Take B1: the binding result in assay [3] was “binds”.

B2: TIMELESS canonical isoform TIM-L, HA-tagged (pAcTimL-HA) (protein, UniProt P49021 1-1398)
chain: MDWLLATPQLYSAFSSLGCLEGDTYVVNPNALAILEEINYKLTYEDQTLRTFRRAIGFGQNVRSDLIPLLENAKDDAVLESVIRILVNLTVPVECLFSVDVMYRTDVGRHTIFELNKLLYTSKEAFTEARSTKSVVEYMKHILESDPKLSPHKCDQINNCLLLLRNILHIPETHAHCVMPMMQSMPHGISMQNTILWNLFIQSIDKLLLYLMTCPQRAFWGVTMVQLIALIYKDQHVSTLQKLLSLWFEASLSESSEDNESNTSPPKQGSGDSSPMLTSDPTSDSSDNGSNGRGMGGGMREGTAATLQEVSRKGQEYQNAMARVPADKPDGSEEASDMTGNDSEQPGSPEQSQPAGESMDDGDYEDQRHRQLNEHGEEDEDEDEVEEEEYLQLGPASEPLNLTQQPADKVNNTTNPTSSAPQGCLGNEPFKPPPPLPVRASTSAHAQMQKFNESSYASHVSAVKLGQKSPHAGQLQLTKGKCCPQKRECPSSQSELSDCGYGTQVENQESISTSSNDDDGPQGKPQHQKPPCNTKPRNKPRTIMSPMDKKELRRKKLVKRSKSSLINMKGLVQHTPTDDDISNLLKEFTVDFLLKGYSYLVEELHMQLLSNAKVPIDTSHFFWLVTYFLKFAAQLELDMEHIDTILTYDVLSYLTYEGVSLCEQLELNARQEGSDLKPYLRRMHLVVTAIREFLQAIDTYNKVTHLNEDDKAHLRQLQLQISEMSDLRCLFVLLLRRFNPSIHSKQYLQDLVVTNHILLLILDSSAKLGGCQTIRLSEHITQFATLEVMHYYGILLEDFNNNGEFVNDCIFTMMHHIGGDLGQIGVLFQPIILKTYSRIWEADYELCDDWSDLIEYVIHKFMNTPPKSPLTIPTTSLTEMTKEHNQEHTVCSWSQEEMDTLYWYYVQSKKNNDIVGKIVKLFSNNGNKLKTRISIIQQLLQQDIITLLEYDDLMKFEDAEYQRTLLTTPTSATTESGIEIKECAYGKPSDDVQILLDLIIKENKAQHLLWLQRILIECCFVKLTLRSGLKVPEGDHIMEPVAYHCICKQKSIPVVQWNNEQSTTMLYQPFVLLLHKLGIQLPADAGSIFARIPDYWTPETMYGLAKKLGPLDKLNLKFDASELEDATASSPSRYHHTGPRNSLSSVSSLDVDLGDTEELALIPEVDAAVEKAHAMASTPSPSEIFAVPKTKHCNSIIRYTPDPTPPVPNWLQLVMRSKCNHRTGPSGDPSDCIGSSSTTVDDEGFGKSISAATSQAASTSMSTVNPTTTLSLNMLNTFMGSHNENSSSSGCGGTVSSLSMVALMSTGAAGGGGNTSGLEMDVDASMKSSFERLEVNGSHFSRANNLDQEYSAMVASVYEKEKELNSDNVSLASDLTRMYVSDEDDRLERTEIRVPHYH
Regarding B2, in assay [3], the binding entry is reported as “binds”.
